Results reported in patent publication US20110086089A1, “USE OF P27KIP1 FOR THE PREVENTION AND TREATMENT OF HEART FAILURE” (UNIVERSITY HEALTH NETWORK, priority 2008, published 2011).
Results are given in words; binding and its absence hold for the method and conditions named. For some of these results: In cells and extracts the contact can be indirect. Some entries that bind do so weakly or less than the wild type.

How the values were obtained:
[1] = molecular target: glutathione-S-transferase (GST) conjugated wt.p27 (human) (UniProt P46527); assay: GST pull-down on glutathione-sepharose beads, anti-His immunoblot (FIG. 1B)
[2] = molecular target: glutathione-S-transferase (GST) conjugated wt.p27 (human) (UniProt P46527); assay: GST pull-down on glutathione-sepharose beads, anti-His immunoblot
[3] = molecular target: recombinant active His-tagged CK2-alpha-prime/beta (UniProt P19784); assay: immunoprecipitation with anti-CK2-alpha-prime from kinase reaction mixtures, anti-p27 immunoblot
[4] = molecular target: recombinant active His-tagged CK2-alpha-prime/beta (UniProt P19784); assay: immunoprecipitation with anti-p27 from kinase reaction mixtures, anti-CK2-alpha-prime immunoblot

binding [1]	binding [2]	binding [3]	binding [4]	Substance
binds	binds	–	–	Wt.CK2-alpha-prime containing a N-terminal hexahistidine (His) sequence (from UniProt P19784 1-350) (enzyme)
–	–	binds	binds	recombinant His-tagged wt.p27 (from UniProt P46527 1-198)
